Measurements: patent publication US6677358B1, “NIDDM regimen” (Novo Nordisk A/S, priority 1997, dated 2004)

Tested on: NIDDM patients inadequately controlled on metformin alone
Conditions: mean ± SD, baseline to end of maintenance treatment period

CN(C)C(=N)N=C(N)N [Metformin, metformin]
Change in HDL cholesterol: 0.07 mmol/L | Change in LDL cholesterol: 0.10 mmol/L | Change in total cholesterol: 0.13 mmol/L | Change in triglycerides: -0.20 mmol/L

CCOc1cc(CC(=O)N[C@@H](CC(C)C)c2ccccc2N2CCCCC2)ccc1C(=O)O [Repaglinide, (S)-(+)-2-ethoxy-4-[2-[[3-methyl-1-[2-(1-piperidinyl)phenyl]butyl]amino]-2-oxo-ethyl]benzoic acid]
Change in HDL cholesterol: 0.09 ± 0.03 mmol/L | Change in LDL cholesterol: 0.41 ± 0.12 mmol/L | Change in total cholesterol: 0.38 ± 0.12 mmol/L | Change in triglycerides: 0.09 ± 0.16 mmol/L
